{
  "source": "patent US20250100977A1",
  "about": "“MERCAPTOPYRIMIDINE COMPOUNDS THAT INHIBIT NONHOMOLOGOUS END JOINING AND METHODS THEREOF” (INDIAN INSTITUTE OF SCIENCE, priority 2021, published 2025)",
  "test_system": "rat testicular extracts",
  "experiment": "Inhibition of end joining of rat testicular extracts (NHEJ)",
  "type": "biochemical",
  "method": "The compounds of the present invention were tested for their effects on inhibition of DNA end joining reactions using rat tissue extracts and purified DNA Ligase IV/XRCC4. Rat testicular extracts were prepared from testes of 4-6 week old male Wistar rats, Rattus norvegicus using ammonium sulphate precipitation method. To determine end joining of cell-free extracts, radiolabeled double-stranded (ds) oligomeric DNA substrate was incubated with rat testicular extract at 25° C. in suitable NHEJ buffer. Extracts were incubated for 30 min with the compounds of Formula I (01-41, 500 μM) as prepared in Example 1, and then radioactive DNA substrate was added to the reaction mixture and incubated for 1 h at 25° C. Reactions were stopped using EDTA, and products were purified using phenol: chloroform extraction and loaded on denaturing polyacrylamide gel. […] Joining efficiency was calculated using the intensity of product bands (150 bp or higher) in individual lanes in Multi Gauge software as compared to control (lanes 2,3). […]\nEffects of these compounds on NHEJ and Ligase IV mediated joining were evaluated (FIG. 4A-K). […] The gel was dried, exposed, and signal was detected using phosphor Imager FLA9000 (Fuji, Japan), and quantified in MultiGauge software expressed as Photo Stimulated Luminescence Units (PSLU). […]",
  "note": "Some entries share one result that the patent states for a list of compounds.",
  "data": [
    {"compound": "Nc1nc(S)nc(O)c1/N=C/c1ccc([N+](=O)[O-])s1", "note": "[Compound 16, (E)-6-amino-2-mercapto-5-(((5-nitrothiophen-2-yl)methylene)amino)pyrimidin-4-ol]", "values": [
      {"measurement": "Inhibition of end joining", "setting": "200 μM", "value": "> 50", "unit": "%"}
    ]},
    {"compound": "Nc1nc(S)nc(O)c1/N=C/c1sc(Cl)nc1Cl", "note": "[Compound 32, (E)-6-amino-5-(((2,4-dichlorothiazol-5-yl)methylene)amino)-2-mercaptopyrimidin-4-ol]", "values": [
      {"measurement": "Inhibition of end joining", "setting": "100 μM", "value": "> 50", "unit": "%"}
    ]}
  ]
}
